Publication PMC4659838
No constants are given. Whether binding was seen depends on the method and setting. Binding seen in cells or lysates may run through a third protein. Some entries that bind do so weakly or less than the wild type.

Amino acid sequences for entries named in this document (tags omitted).
UniProt O95817: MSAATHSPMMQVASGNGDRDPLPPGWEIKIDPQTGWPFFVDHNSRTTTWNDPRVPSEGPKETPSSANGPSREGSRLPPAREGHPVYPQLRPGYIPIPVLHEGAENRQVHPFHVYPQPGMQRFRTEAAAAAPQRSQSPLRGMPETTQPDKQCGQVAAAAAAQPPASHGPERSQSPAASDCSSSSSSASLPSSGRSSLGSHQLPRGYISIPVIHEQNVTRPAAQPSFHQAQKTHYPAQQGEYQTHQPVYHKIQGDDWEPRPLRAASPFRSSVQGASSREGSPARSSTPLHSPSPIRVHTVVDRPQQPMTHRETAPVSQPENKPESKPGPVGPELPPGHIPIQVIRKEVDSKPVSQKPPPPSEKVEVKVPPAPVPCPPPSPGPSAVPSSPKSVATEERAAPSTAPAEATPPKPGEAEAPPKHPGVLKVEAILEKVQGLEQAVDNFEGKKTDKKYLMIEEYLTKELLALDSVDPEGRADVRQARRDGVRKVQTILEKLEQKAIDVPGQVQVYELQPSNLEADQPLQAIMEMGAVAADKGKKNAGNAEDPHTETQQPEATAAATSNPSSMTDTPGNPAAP

Biological target: T1, IFITM-2 (Interferon-Induced Transmembrane Protein 2) (mouse (endogenous in J774.A1)) (UniProt Q99J93)
T1 sequence: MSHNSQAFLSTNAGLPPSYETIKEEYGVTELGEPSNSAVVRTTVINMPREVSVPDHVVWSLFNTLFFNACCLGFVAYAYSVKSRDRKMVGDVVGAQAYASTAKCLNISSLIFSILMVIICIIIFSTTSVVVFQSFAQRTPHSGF
Assay: co-IP; J774.A1 macrophages incubated with His-tagged rBAG3; plasma membrane complexes extracted natively with 1% CALX173ACE; immuno-affinity chromatography on anti-IFITM-2 agarose resin; rBAG3 monitored by western blot; macrophages not incubated with rBAG3 as negative control; only the binder purified

His-tagged recombinant BAG3 (Bcl-2-associated athanogene 3) (from UniProt O95817 1-575)
binding: binds
